# PubChem BioAssay AID445 (National Center for Advancing Translational Sciences (NCATS), 2006)
# The list shows a part of the results. These are further read-outs of the screen, such as a control signal, another cell line or another target. No call is given for them. Compounds called inactive in the main read-out are mostly missing here. The note in brackets gives the kind of curve behind each potency; many fits are weak.
# Test: IkB Signaling
# Settings: ABC-DLBCL IkBa-CBG/CBR dual luciferase ratio (green luciferase fused to IkBa over red control in OCI-Ly3 lymphoma cells), 4 h
# Outline: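 In this assay, an IκBα–CBG68 fusion accumulates when IKK-driven degradation is blocked; native CBR normalizes for cell number. OCI-Ly3 cells were treated 4 h with compound and doxycycline, then green and red light read after Chroma-Glo addition.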
# [1] = measured here: control luc red channel unless noted
structure (smiles),measurement,setting,value
CS(=O)(=O)N1CCC(C(=O)Nc2c(F)cccc2F)CC1,AC50,[1],"39.8 µM [rising, single point] [measured here: IkB-luc green channel]"
Cc1cc(C)cc(NC(=O)CSc2nnc(COc3ccccc3Cl)o2)c1,AC50,[1],"20 µM [falling, single point]"
Cc1ccc(C)c(NC(=O)CCCN2C(=O)COc3ccc(C)cc32)c1,AC50,[1],"10 µM [falling, single point]"
CC(C)(C)OC(=O)N1CCC(c2c(C(=O)Nc3cccc(C(F)(F)F)c3)cnn2-c2ccc(F)cc2F)CC1,AC50,[1],"15.8 µM [falling, partial curve]"
COc1ccc(C)cc1NC(=O)c1cc2c(s1)-c1ccccc1SC2,AC50,[1],"0.631 µM [falling, full curve]"
O=c1c(-c2ccc3c(c2)OCCO3)coc2cc(O)cc(O)c12,AC50,[1],"15.8 µM [falling, single point]"
CC(=O)Nc1cc(C(=O)NCc2ccc(F)cc2)ccc1Sc1ccc(C)cc1,AC50,[1],"39.8 µM [falling, partial curve]"
Cc1nn(-c2ccccc2)c(-n2cccc2)c1C(=O)NCc1ccccc1Cl,AC50,[1],"15.8 µM [falling, partial curve]"
O=C1CN(C(=O)c2ccc(Cl)cc2Cl)C(c2ccc(F)cc2)c2cc(F)ccc2N1 (stereo unspecified),AC50,[1],"3.98 µM [falling, partial curve]"
CCOC(=O)C1CCN(C(=O)CSc2n[nH]c(-c3ccccc3Cl)n2)CC1,AC50,[1],"25.1 µM [falling, partial curve, poor fit]"
CN1C(=O)CSc2ccc(NC(=O)N3CCc4ccccc43)cc21,AC50,[1],"15.8 µM [falling, partial curve]"
Cc1ccc(CCNC(=O)CN2C(=O)COc3ccc(S(=O)(=O)N4CCCCC4)cc32)cc1,AC50,[1],"39.8 µM [falling, single point]"
Cc1ccc(C(CC(=O)NCC2(c3ccccc3)CCCC2)c2ccccc2)c(O)c1 (stereo unspecified),AC50,[1],"12.6 µM [falling, partial curve]"
Cc1ccc(Nc2nnc(-c3ccc(C)c(S(=O)(=O)N4CCCCC4)c3)c3ccccc23)cc1,AC50,[1],"10 µM [falling, partial curve]"
CCOc1ccc2c(c1)[C@@H]1C=CC[C@@H]1[C@H](c1ccccc1Cl)N2,AC50,[1],"12.6 µM [falling, single point]"
CC(C)(C)OC(=O)N1CCC(c2c(C(=O)Nc3ccc4c(c3)OCCO4)cnn2-c2ccc(F)cc2)CC1,AC50,[1],"39.8 µM [falling, single point]"
COc1ccc(OC)c(NCc2cccn2-c2nnc(N3CCC(C)CC3)s2)c1,AC50,[1],"39.8 µM [rising, single point]"
Cc1cccc(-c2nc3c(cnn3-c3ccccc3)c(=O)n2-c2cccc(Cl)c2)c1,AC50,[1],"10 µM [falling, partial curve]"
CC1CCCCN1S(=O)(=O)c1ccc(F)c(C(=O)Nc2ccccc2C(F)(F)F)c1 (stereo unspecified),AC50,[1],"31.6 µM [falling, single point]"
CCOC(=O)C1CCN(c2cc3c(cc2NC(=O)c2ccc(OC)c(OC)c2)n(C)c(=O)n3C)CC1,AC50,[1],"10 µM [falling, partial curve]"
O=C(O)c1cccc(Nc2ncnc3ccccc23)c1,AC50,[1],"5.01 µM [falling, full curve]"
CCCc1ccc(-c2ccc(C(=O)O)cc2)nc1,AC50,[1],"0.251 µM [falling, full curve]"
Cc1cn2c(=O)cc(COc3cc(C)c(Cl)c(C)c3)nc2s1,AC50,[1],"2.51 µM [rising, partial curve]"
CCOc1cc2sc(N3CCC(C(=O)Nc4ccc(C(C)C)cc4)CC3)nc2cc1Br,AC50,[1],"0.158 µM [falling, full curve]"
CCOc1ccc(NC(=O)CN(c2ccccc2OCC)S(=O)(=O)c2ccccc2)cc1,AC50,[1],"10 µM [falling, partial curve]"
COc1cccc(-c2cc(C(=O)Nc3ccccc3SC)no2)c1,AC50,[1],"0.00316 µM [falling, full curve]"
Cc1cc(Cl)ccc1NS(=O)(=O)c1ccc2c(c1)CCN2S(C)(=O)=O,AC50,[1],"20 µM [falling, partial curve]"
COc1ccc(S(=O)(=O)N2CCN(Cc3nc4ccc(C)cc4o3)CC2)cc1OC,AC50,[1],"10 µM [falling, partial curve]"
CC1CC(C)CN(c2ncc3c(n2)CC(c2ccccc2)CC3=O)C1 (stereo unspecified),AC50,measured here: IkB-luc green channel,"7.94 µM [rising, single point]"
same,AC50,measured here: control luc red channel,"6.31 µM [rising, single point]"
COC(=O)Cc1[nH]nc2c1C(C1C=CCCC1)C(C#N)=C(N)O2 (stereo unspecified),AC50,[1],"15.8 µM [falling, partial curve]"
O=C(NCc1cccs1)c1nn(-c2ccccc2)nc1CO,AC50,[1],"6.31 µM [falling, single point]"
CCOc1ccc(NC(=O)CSc2cc(C)c3ccccc3n2)cc1,AC50,[1],"1 µM [rising, single point]"
COc1ccc(CCNC(=O)Cc2c(C)c3c(cc(C)c4c(C)c(C)oc43)oc2=O)cc1OC,AC50,[1],"39.8 µM [falling, single point]"
Cc1ccc(NC(=O)Cn2c(=O)n(-c3ccc(C)cc3)c(=O)c3ccc(C(=O)NCc4ccccc4Cl)cc32)cc1,AC50,[1],"10 µM [falling, partial curve]"
Cc1cc(C)cc(NC(=O)c2sc3nc(-c4ccccc4)cn3c2C)c1,AC50,[1],"3.16 µM [falling, partial curve]"
CC(=O)Nc1nonc1-c1nnc(SCc2ccc(F)cc2Cl)n1C,AC50,[1],"15.8 µM [falling, single point]"
CCOC(=O)c1cccc(NC(=O)CCS(=O)(=O)c2ccc(Br)s2)c1,AC50,[1],"39.8 µM [falling, single point]"
COc1ccc(NC(=O)c2cc(-c3ccc4c(c3)OCO4)on2)c(OC)c1,AC50,[1],"5.01 µM [falling, full curve, poor fit]"
COc1ccc(/C=C/C(=O)Nc2ccc3nc(N4CCC(C)CC4)cc(C)c3c2)cc1OC,AC50,[1],"7.94 µM [falling, full curve]"
Cn1c(=O)c2c(nc(SCC(=O)Nc3ccc(F)cc3F)n2Cc2ccccc2)n(C)c1=O,AC50,[1],"7.94 µM [falling, full curve]"
